Results: the supplement of paper PMC6078165

Columns and labels:
[1] = test system: Hs578T; test: relative JC-1 red fluorescence (viability) vs pre-drug, monoculture (fraction); higher = more viable cancer cells; conditions: coculture fibroblast: none (monoculture)
Protocol: (§1)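 JC-1 labelled TNBC cells grown in monoculture (density kept equal with unlabelled cancer cells) in 384-well plates in FluoroBrite medium, treated with one of 42 anticancer drugs at 0.1, 1, 10 or 100 uM. JC-1 red fluorescence (mitochondrial integrity, surrogate of apoptotic death) was read by plate reader every 8 h for 72 h. Values are normalised to each well's pre-drug value, with background from alamethicin. The stock of one drug was tenfold lower, so its dose labels may be too high. Monoculture values are repeated alongside each fibroblast plate and are averaged here.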

[2] = test system: HCC1143; test: as above; conditions: coculture fibroblast: none (monoculture)
Protocol: as §1

Cc1c2oc3c(C)ccc(C(=O)N[C@@H]4C(=O)N[C@H](C(C)C)C(=O)N5CCC[C@H]5C(=O)N(C)CC(=O)N(C)[C@@H](C(C)C)C(=O)O[C@@H]4C)c3nc-2c(C(=O)N[C@@H]2C(=O)N[C@H](C(C)C)C(=O)N3CCC[C@H]3C(=O)N(C)CC(=O)N(C)[C@@H](C(C)C)C(=O)O[C@@H]2C)c(N)c1=O [Dactinomycin] (I: T[dV]P[Sar][NMeV] / II: T[dV]P[Sar][NMeV]; ester I:1-I:C, II:1-II:C; linker I:N-II:N via Actinocin(9to1))
relative JC-1 red fluorescence ([1]; 0.1 µM, 8 h): 0.806 ± 0.027 | relative JC-1 red fluorescence ([1]; 0.1 µM, 16 h): 0.6951 ± 0.00052 | relative JC-1 red fluorescence ([1]; 0.1 µM, 24 h): 0.672 ± 0.014 | relative JC-1 red fluorescence ([1]; 0.1 µM, 32 h): 0.569 ± 0.015 | relative JC-1 red fluorescence ([1]; 0.1 µM, 40 h): 0.52 ± 0.02 | relative JC-1 red fluorescence ([1]; 0.1 µM, 48 h): 0.489 ± 0.011 | relative JC-1 red fluorescence ([1]; 0.1 µM, 56 h): 0.469 ± 0.009 | relative JC-1 red fluorescence ([1]; 0.1 µM, 64 h): 0.457 ± 0.0081 | relative JC-1 red fluorescence ([1]; 0.1 µM, 72 h): 0.4567 ± 0.0013 | relative JC-1 red fluorescence ([1]; 1 µM, 8 h): 0.797 ± 0.015 | relative JC-1 red fluorescence ([1]; 1 µM, 16 h): 0.66 ± 0.034 | relative JC-1 red fluorescence ([1]; 1 µM, 24 h): 0.619 ± 0.077 | relative JC-1 red fluorescence ([1]; 1 µM, 32 h): 0.527 ± 0.063 | relative JC-1 red fluorescence ([1]; 1 µM, 40 h): 0.484 ± 0.061 | relative JC-1 red fluorescence ([1]; 1 µM, 48 h): 0.482 ± 0.068 | relative JC-1 red fluorescence ([1]; 1 µM, 56 h): 0.468 ± 0.072 | relative JC-1 red fluorescence ([1]; 1 µM, 64 h): 0.484 ± 0.071 | relative JC-1 red fluorescence ([1]; 1 µM, 72 h): 0.484 ± 0.08 | relative JC-1 red fluorescence ([1]; 10 µM, 8 h): 0.773 ± 0.026 | relative JC-1 red fluorescence ([1]; 10 µM, 16 h): 0.661 ± 0.01 | relative JC-1 red fluorescence ([1]; 10 µM, 24 h): 0.6476 ± 0.0047 | relative JC-1 red fluorescence ([1]; 10 µM, 32 h): 0.5564 ± 0.0045 | relative JC-1 red fluorescence ([1]; 10 µM, 40 h): 0.514 ± 0.0076 | relative JC-1 red fluorescence ([1]; 10 µM, 48 h): 0.505 ± 0.0071 | relative JC-1 red fluorescence ([1]; 10 µM, 56 h): 0.498 ± 0.011 | relative JC-1 red fluorescence ([1]; 10 µM, 64 h): 0.5101 ± 0.0045 | relative JC-1 red fluorescence ([1]; 10 µM, 72 h): 0.5079 ± 0.0037 | relative JC-1 red fluorescence ([1]; 100 µM, 8 h): 0.745 ± 0.011 | relative JC-1 red fluorescence ([1]; 100 µM, 16 h): 0.6291 ± 0.0037 | relative JC-1 red fluorescence ([1]; 100 µM, 24 h): 0.568 ± 0.0065 | relative JC-1 red fluorescence ([1]; 100 µM, 32 h): 0.464 ± 0.0047 | relative JC-1 red fluorescence ([1]; 100 µM, 40 h): 0.424 ± 0.0052 | relative JC-1 red fluorescence ([1]; 100 µM, 48 h): 0.415 ± 0.0083 | relative JC-1 red fluorescence ([1]; 100 µM, 56 h): 0.403 ± 0.017 | relative JC-1 red fluorescence ([1]; 100 µM, 64 h): 0.412 ± 0.018 | relative JC-1 red fluorescence ([1]; 100 µM, 72 h): 0.41 ± 0.02 | relative JC-1 red fluorescence ([2]; 0.1 µM, 8 h): 0.838 ± 0.018 | relative JC-1 red fluorescence ([2]; 0.1 µM, 16 h): 0.782 ± 0.018 | relative JC-1 red fluorescence ([2]; 0.1 µM, 24 h): 0.732 ± 0.028 | relative JC-1 red fluorescence ([2]; 0.1 µM, 32 h): 0.687 ± 0.037 | relative JC-1 red fluorescence ([2]; 0.1 µM, 40 h): 0.651 ± 0.04 | relative JC-1 red fluorescence ([2]; 0.1 µM, 48 h): 0.626 ± 0.04 | relative JC-1 red fluorescence ([2]; 0.1 µM, 56 h): 0.606 ± 0.054 | relative JC-1 red fluorescence ([2]; 0.1 µM, 64 h): 0.597 ± 0.068 | relative JC-1 red fluorescence ([2]; 0.1 µM, 72 h): 0.594 ± 0.069 | relative JC-1 red fluorescence ([2]; 1 µM, 8 h): 0.813 ± 0.036 | relative JC-1 red fluorescence ([2]; 1 µM, 16 h): 0.724 ± 0.027 | relative JC-1 red fluorescence ([2]; 1 µM, 24 h): 0.663 ± 0.037 | relative JC-1 red fluorescence ([2]; 1 µM, 32 h): 0.61 ± 0.047 | relative JC-1 red fluorescence ([2]; 1 µM, 40 h): 0.571 ± 0.044 | relative JC-1 red fluorescence ([2]; 1 µM, 48 h): 0.558 ± 0.047 | relative JC-1 red fluorescence ([2]; 1 µM, 56 h): 0.542 ± 0.051 | relative JC-1 red fluorescence ([2]; 1 µM, 64 h): 0.545 ± 0.049 | relative JC-1 red fluorescence ([2]; 1 µM, 72 h): 0.55 ± 0.05 | relative JC-1 red fluorescence ([2]; 10 µM, 8 h): 0.788 ± 0.033 | relative JC-1 red fluorescence ([2]; 10 µM, 16 h): 0.689 ± 0.03 | relative JC-1 red fluorescence ([2]; 10 µM, 24 h): 0.639 ± 0.038 | relative JC-1 red fluorescence ([2]; 10 µM, 32 h): 0.585 ± 0.052 | relative JC-1 red fluorescence ([2]; 10 µM, 40 h): 0.555 ± 0.05 | relative JC-1 red fluorescence ([2]; 10 µM, 48 h): 0.541 ± 0.053 | relative JC-1 red fluorescence ([2]; 10 µM, 56 h): 0.526 ± 0.053 | relative JC-1 red fluorescence ([2]; 10 µM, 64 h): 0.526 ± 0.056 | relative JC-1 red fluorescence ([2]; 10 µM, 72 h): 0.532 ± 0.055 | relative JC-1 red fluorescence ([2]; 100 µM, 8 h): 0.823 ± 0.021 | relative JC-1 red fluorescence ([2]; 100 µM, 16 h): 0.7275 ± 0.004 | relative JC-1 red fluorescence ([2]; 100 µM, 24 h): 0.6352 ± 0.0039 | relative JC-1 red fluorescence ([2]; 100 µM, 32 h): 0.5593 ± 0.0034 | relative JC-1 red fluorescence ([2]; 100 µM, 40 h): 0.494 ± 0.0095 | relative JC-1 red fluorescence ([2]; 100 µM, 48 h): 0.452 ± 0.013 | relative JC-1 red fluorescence ([2]; 100 µM, 56 h): 0.417 ± 0.02 | relative JC-1 red fluorescence ([2]; 100 µM, 64 h): 0.4 ± 0.026 | relative JC-1 red fluorescence ([2]; 100 µM, 72 h): 0.391 ± 0.027

± gives the standard deviation of the averaged measurements. Values are relative to the signal before dosing, not to a vehicle control; the signal also falls without drug.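 The tumor cells are basal-like or mesenchymal-like triple-negative breast cancer lines cultured without fibroblasts. Reduced red signal indicates lost mitochondrial integrity, serving as a proxy for apoptotic death.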 Numbered stars: 1 amine (or outer) side, 2 acyl side, 3 side chain; on linkers, the order of the positions; unused ones are H or OH. Bridge positions count the residues as written; N and C are the ends. Square brackets hold non-standard residues; d marks the D form. Peptide text beside a SMILES is read from it. I, II: the chains in the order shown. Actinocin(9to1) = Cc1c2oc3c(C)ccc(C(=O)[*:1])c3nc-2c(C(=O)[*:2])c(N)c1=O; NMeV = CN[C@H](C(=O)O)C(C)C; Sar = CNCC(=O)O
